From publication PMC4553633
For at least one entry, the source does not settle the construct or the ends of the probe. A weaker result is weaker than the reference pair of the same experiment.

Chains of the proteins cited; added tags and fusions are not shown. Chains listed by the source or under a name are the forms on record and can include a tag or linker.
UniProt P27782, whole entry: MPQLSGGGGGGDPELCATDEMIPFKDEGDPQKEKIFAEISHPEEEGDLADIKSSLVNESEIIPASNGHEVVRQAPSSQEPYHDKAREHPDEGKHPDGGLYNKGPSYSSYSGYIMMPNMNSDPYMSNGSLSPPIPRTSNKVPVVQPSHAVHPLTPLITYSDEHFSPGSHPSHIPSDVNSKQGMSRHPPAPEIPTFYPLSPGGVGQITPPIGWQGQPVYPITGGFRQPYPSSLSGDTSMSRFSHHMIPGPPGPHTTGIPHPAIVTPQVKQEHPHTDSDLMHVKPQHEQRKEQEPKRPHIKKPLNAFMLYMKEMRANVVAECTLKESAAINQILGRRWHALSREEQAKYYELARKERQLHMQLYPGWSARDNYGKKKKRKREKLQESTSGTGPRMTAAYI
His-Lef1 (mLef1) + flag-β-catenin (hβ-catenin), one chain, as listed by the source, chain 2 of 2: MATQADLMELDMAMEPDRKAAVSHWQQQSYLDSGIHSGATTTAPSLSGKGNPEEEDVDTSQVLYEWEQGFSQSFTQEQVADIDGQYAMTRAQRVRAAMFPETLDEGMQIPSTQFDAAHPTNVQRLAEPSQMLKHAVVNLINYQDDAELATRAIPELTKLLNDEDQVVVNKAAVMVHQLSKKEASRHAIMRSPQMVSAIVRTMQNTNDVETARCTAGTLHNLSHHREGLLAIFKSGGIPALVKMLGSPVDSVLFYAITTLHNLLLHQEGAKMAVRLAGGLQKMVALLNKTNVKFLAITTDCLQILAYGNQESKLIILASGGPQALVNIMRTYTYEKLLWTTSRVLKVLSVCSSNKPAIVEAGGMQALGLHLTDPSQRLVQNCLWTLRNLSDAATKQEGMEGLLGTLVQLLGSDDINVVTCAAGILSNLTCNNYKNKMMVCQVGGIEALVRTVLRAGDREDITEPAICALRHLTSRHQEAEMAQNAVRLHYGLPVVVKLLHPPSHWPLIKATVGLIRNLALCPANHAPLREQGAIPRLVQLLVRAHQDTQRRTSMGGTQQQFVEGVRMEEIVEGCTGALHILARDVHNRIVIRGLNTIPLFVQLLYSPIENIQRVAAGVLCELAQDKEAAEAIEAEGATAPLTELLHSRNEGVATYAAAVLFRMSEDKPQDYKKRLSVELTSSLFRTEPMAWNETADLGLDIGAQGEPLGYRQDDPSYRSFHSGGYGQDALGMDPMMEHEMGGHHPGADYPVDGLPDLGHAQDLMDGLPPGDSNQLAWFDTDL
His-Lef1 (mLef1) + flag-β-catenin (hβ-catenin), one chain, as listed by the source, chain 1 of 2: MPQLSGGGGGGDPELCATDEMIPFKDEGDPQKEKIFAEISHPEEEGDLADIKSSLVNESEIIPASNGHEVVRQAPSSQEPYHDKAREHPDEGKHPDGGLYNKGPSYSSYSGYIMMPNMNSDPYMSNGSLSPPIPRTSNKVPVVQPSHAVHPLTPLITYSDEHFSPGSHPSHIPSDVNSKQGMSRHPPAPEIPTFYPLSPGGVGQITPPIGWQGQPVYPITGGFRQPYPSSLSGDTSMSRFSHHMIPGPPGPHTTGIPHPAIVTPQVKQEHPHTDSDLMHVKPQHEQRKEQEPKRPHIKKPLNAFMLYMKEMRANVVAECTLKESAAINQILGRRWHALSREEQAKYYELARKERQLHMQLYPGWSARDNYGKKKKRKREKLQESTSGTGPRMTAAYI

Key:
[1] = target: His-Lef1 (mLef1) (Mus musculus) (UniProt P27782); assay: competition with a labelled probe; details: unlabeled N4 10-50x vs labeled N3; EMSA essentially as Forman et al. 1992 and Shtutman et al. 1999; pH and temperature not stated; protein translated in vitro; protein details: N-terminal His
[2] = system: His-Lef1 (mLef1) + flag-β-catenin (hβ-catenin); assay: competition with a labelled probe; details: unlabeled N4 10-50x vs labeled N3; EMSA essentially as Forman et al. 1992 and Shtutman et al. 1999; pH and temperature not stated; protein translated in vitro; protein details: N-terminal His,flag
[3] = target: His-Lef1 (mLef1) (Mus musculus) (UniProt P27782); assay: EMSA; details: EMSA essentially as Forman et al. 1992 and Shtutman et al. 1999; pH and temperature not stated; protein translated in vitro; protein details: N-terminal His

Measured: binding result

TTGACCCTCCTCACATCTTTCTTAG (double strand) [Tcf/Lef mut]
binds more weakly: all assays above
